Here are results for nine molecules from the supplement of paper PMC12889115.

Structures are written as SMILES. The list shows a part of the results. These are raw signals, not scaled to a control.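 Primary screen: polymyxin B was added at a level permeabilizing Salmonella outer membranes while sparing inner membranes. DMSO wells, both with and without polymyxin B, established maximum growth. Plate-to-plate variation meant each plate was ranked on its own, and the lowest-OD600 compounds were selected as hits.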

This experiment concerns Salmonella enterica serovar Typhimurium SL1344. Put plainly: bacterial growth OD600 after 18 h with compound and polymyxin B; higher = more bacterial growth (less inhibition). The following applies: 50 µM, Mueller-Hinton broth.

Take `O=C(c1coc(COc2cccc3cccnc23)n1)N1CCCC1`: under “polymyxin B 1 µg/mL”, the “bacterial growth OD600” value was 0.924.

As to `COc1ccc(C(=O)N2CCc3c(cnc(C)c3CNC(=O)c3ccccc3SC)C2)cc1F`, the “bacterial growth OD600” value (polymyxin B 0.75 µg/mL) worked out at 0.821.

Consider `Cc1ccccc1-c1cnc(-c2cccnc2)nc1C1CCN(C(=O)c2sccc2C)CC1`, for which the “bacterial growth OD600” value (polymyxin B 0.75 µg/mL) was 0.725.

For the molecule `CN(CCO)c1ccc(-c2nc(-c3cccc(C(F)(F)F)c3)no2)cn1`, the “bacterial growth OD600” value (polymyxin B 0.75 µg/mL) came out at 0.116.

Take `Cc1nc(N2CCCC(C(=O)NCC3CCCCC3)C2)nc2cc(S(C)(=O)=O)ccc12` (centres undefined): for the setting “polymyxin B 0.75 µg/mL”, the “bacterial growth OD600” value was determined as 0.934.

Take `CN(Cc1ccncc1)CC1CCCN(CCc2ccccc2F)C1` (centres undefined): the “bacterial growth OD600” value (polymyxin B 1 µg/mL) was found to be 0.533.

Turning to `COc1ccc(CN2Cc3cc(C)ccc3OC(c3ccsc3)C2)c(OC)c1OC` (centres undefined), the “bacterial growth OD600” value (polymyxin B 0.75 µg/mL) came out at 0.554.

`O=C(N1CCCC(Nc2ccccc2)C1)C1(c2ccccc2)CC1` (centres undefined): under “polymyxin B 1 µg/mL”, the “bacterial growth OD600” value stood at 0.93.

With `CCOC(=O)C1(Cc2cccc(OC)c2)CCN(Cc2ccc3c(c2)OCCO3)CC1`, the “bacterial growth OD600” value (polymyxin B 1 µg/mL) is 0.479.
